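293T-iDUX4 dual-reporter cells; luminescence of the tet-on Italica luciferase control is read after 24 h. The test concentration is not given here. Percent change in the Italica control signal; more negative values mean stronger inhibition, which points to nonspecific, tet-on or cytotoxic effects.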

Values are in %. Common to all entries: measured here: Italica tet-on control reporter. This is a side read-out of the assay, for part of the compounds, not drawn at random.

SMILES	activity change (%)
COc1ccccc1S(=O)(=O)N1CC[C@@H]2[C@@H](CO)Nc3ccc(-c4ccc(C#N)cc4)cc3[C@@H]21	-36.03
COc1ccc(C#Cc2ccc([C@H]3[C@@H](CO)N4CCCCN(S(=O)(=O)c5ccccc5)C[C@@H]34)cc2)cc1	3.785
CO[C@H]1CN(C)C(=O)c2cc(NC(=O)C3CC3)ccc2OC[C@H](C)N(Cc2cc(F)ccc2F)C[C@H]1C	-12.71
COc1ccc(-c2ccccc2[C@H]2[C@@H](C#N)N(C(=O)C3CCC3)[C@H]2CO)cc1	-12.24
COc1ccc2c3c([nH]c2c1)[C@H](CO)N(C(=O)c1ccccc1)CC31CCN(C(=O)c2cccc(F)c2)CC1	-7.221
COCC(=O)N1CC2(CCN(Cc3ccccc3)CC2)c2c(n(C)c3cc(OC)ccc23)[C@H]1CO	-69.43
C[C@H]1CN([C@@H](C)CO)C(=O)c2c(c3ccccc3n2C)-c2ccccc2CO[C@@H]1CN(C)C(=O)c1cc(Cl)cc(Cl)c1	-53.21
COc1cccc(CN2CCCCN3[C@H](CO)[C@@H](c4ccc(C#Cc5cccnc5)cc4)[C@@H]3C2)c1	-2.916
COc1ccc(NC(=O)N2CC[C@@H]3[C@H]2c2cc(-c4ccc(F)cc4)ccc2N(C)[C@H]3CO)cc1	-79.97
OC[C@@H]1Nc2ccc(-c3cccc(F)c3)cc2[C@H]2[C@@H]1CCN2Cc1ccc(F)cc1	0.8754
CN1c2ccc(-c3cccc(C#N)c3)cc2[C@@H]2[C@@H](CCN2C(=O)CC2CC2)[C@H]1CO	-15.33
O=C(c1cccc(F)c1)N1CC[C@@H]2[C@@H](CO)Nc3ccc(-c4cccc(F)c4)cc3[C@@H]21	-20.1
COc1ccc(C#Cc2ccc([C@@H]3[C@H](CO)N4CCCCN(C(=O)Nc5ccccc5)C[C@@H]34)cc2)cc1	-94.11
O=C(C[C@H]1CC[C@H]2[C@@H](COC[C@@H](O)CN2Cc2ccccc2F)O1)NCc1ccccc1F	-11.01
OC[C@@H]1[C@H](c2ccc(C#Cc3ccccc3F)cc2)[C@H]2CN(Cc3cncnc3)CCCCN12	-1.945
Cc1noc(C)c1S(=O)(=O)N(C)C[C@@H]1OCc2ccccc2-c2c(n(C)c3ccccc23)C(=O)N([C@@H](C)CO)C[C@@H]1C	-42.13
COc1cccc(-c2ccc([C@H]3[C@H]4CN(C(=O)c5ccc6c(c5)OCO6)CCCCN4[C@H]3CO)cc2)c1	1.715
C[C@@H]1CN([C@H](C)CO)C(=O)c2c(c3ccccc3n2C)-c2ccccc2CO[C@H]1CN(C)C(=O)Nc1cccc(C(F)(F)F)c1	-18.23
COc1ccc2c3c([nH]c2c1)[C@@H](CO)N(C(=O)Nc1ccc(F)cc1)CC31CCN(S(=O)(=O)c2ccccc2)CC1	-79.08
COc1cccc(C#Cc2ccc([C@@H]3[C@@H](CO)N4C(=O)CN(C(=O)C5CC5)C[C@@H]34)cc2)c1	-5.77
CC(C)NC(=O)N1[C@@H](C#N)[C@H](c2ccc(C#CC3CC3)cc2)[C@@H]1CO	-18.69
O=C(c1cccc(F)c1)N1CCCCN2[C@H](C1)[C@@H](c1ccc(-c3ccccc3)cc1)[C@@H]2CO	-11.03
Cc1cccc(-c2ccc([C@H]3[C@@H](CO)N4CCCCN(CCC(F)(F)F)C[C@@H]34)cc2)c1	1.817
COc1ccccc1C#Cc1ccc([C@@H]2[C@H](CO)N3CCCCN(CCC(F)(F)F)C[C@@H]23)cc1	-10.4
O=C(C[C@@H]1CC[C@H]2[C@@H](COC[C@@H](O)CN2Cc2cccc(F)c2)O1)NCC1CCCCC1	-18.59
OC[C@H]1[C@@H](c2ccccc2)C2(CN(Cc3nccs3)C2)N1Cc1cc(F)ccc1F	-9.357
COc1ccc(C#Cc2ccc([C@H]3[C@@H](CO)N4CCCCN(C(=O)c5ccncc5)C[C@H]34)cc2)cc1	-18.09
COc1ccc2c3c([nH]c2c1)[C@@H](CO)N(Cc1cc(F)ccc1F)CC31CN(C(C)=O)C1	-83.94
N#Cc1ccc(-c2ccc3c(c2)[C@H]2[C@H](CCN2C(=O)c2ccccc2F)[C@@H](CO)N3)cc1	-14
COc1cccc(NC(=O)N[C@@H]2C=C[C@@H](CC(=O)Nc3ccc(-c4ccccc4)cc3)O[C@H]2CO)c1	-9.871
C[C@@H](NC(=O)C[C@H]1CC[C@H]2[C@@H](COC[C@@H](O)CN2C(=O)Nc2cccc(F)c2)O1)c1ccccc1	7.369
O=C(C[C@@H]1CC[C@@H]2[C@H](COC[C@H](O)CN2Cc2ccccc2F)O1)N1CCc2ccccc2C1	-34.39
COc1cccc(-c2ccc([C@H]3[C@@H](CO)N4CCCCN(C(=O)Cc5ccncc5)C[C@@H]34)cc2)c1	-48.16
COc1ccc(NC(=O)N2CCCCN3[C@@H](CO)[C@H](c4ccc(C5=CCCCC5)cc4)[C@@H]3C2)cc1	-47.42
Cc1cccc(-c2ccc(C3[C@@H]4CN(Cc5cccc(F)c5)C[C@H]3N4)cc2)c1 (stereo partly shown)	-95.9
O=C(c1ccc2c(c1)OCO2)N1CCCCN2[C@H](CO)[C@H](c3ccc(-c4ccccc4)cc3)[C@H]2C1	-71.9
COc1ccc2c3c(n(C)c2c1)[C@H](CO)NCC31CN(C(=O)c2cccc(F)c2)C1	9.315
C[C@H]1CN([C@@H](C)CO)C(=O)c2c(c3ccccc3n2C)-c2ccccc2CO[C@H]1CN(C)CC1CCCCC1	-76.8
Cc1cccc(-c2ccccc2[C@H]2[C@@H](C#N)N(c3ncc(-c4ccccc4)s3)[C@H]2CO)c1	-7.667
COc1ccc(NC(=O)N2CC(=O)N3[C@H](C2)[C@H](c2ccc(-c4ccc(C)cc4)cc2)[C@@H]3CO)cc1	-4.165
O=C(C[C@H]1CC[C@H]2[C@@H](COC[C@H](O)CN2Cc2cc(F)ccc2F)O1)N1CCc2ccccc2C1	-17.81
COc1ccc2c3c(n(C)c2c1)[C@@H](CO)N(C(=O)Nc1ccc(F)cc1)CC31CN(S(=O)(=O)c2cccs2)C1	-55.6

Once more, the final 5:

| SMILES | activity change (%) |
|---|---|
| `C[C@H]1CN([C@@H](C)CO)C(=O)c2c(c3ccccc3n2C)-c2ccccc2CO[C@H]1CN(C)CC1CCCCC1` | -76.8 |
| `Cc1cccc(-c2ccccc2[C@H]2[C@@H](C#N)N(c3ncc(-c4ccccc4)s3)[C@H]2CO)c1` | -7.667 |
| `COc1ccc(NC(=O)N2CC(=O)N3[C@H](C2)[C@H](c2ccc(-c4ccc(C)cc4)cc2)[C@@H]3CO)cc1` | -4.165 |
| `O=C(C[C@H]1CC[C@H]2[C@@H](COC[C@H](O)CN2Cc2cc(F)ccc2F)O1)N1CCc2ccccc2C1` | -17.81 |
| `COc1ccc2c3c(n(C)c2c1)[C@@H](CO)N(C(=O)Nc1ccc(F)cc1)CC31CN(S(=O)(=O)c2cccs2)C1` | -55.6 |

The results are deposited in PubChem (AID1224904; Broad Institute, 2016).